Measurements: patent publication US20220089609A1, “SUBSTITUTED QUINAZOLINONE DERIVATIVES AND THEIR USE AS POSITIVE ALLOSTERIC MODULATORS OF MGLUR4” (DOMAIN THERAPEUTICS, priority 2018, published 2022)
For at least one compound, name, drawing or mass did not settle the structure.

Tested on: haloperidol-induced catalepsy
Assay: Haloperidol-induced catalepsy model in the mouse (bar test)
Type: in vivo
Conditions: 1 mg/kg per os 60 minutes after haloperidol (1 mg/kg i.p.), measured between 135 and 270 min after haloperidol injection
Protocol: This method, which detects anti-cataleptic activity, follows those well-known by one skilled in the art and described in the literature (e.g. Pires et al., Braz J Med and Biol Res 38, 1867-1872, 2005; Shiozaki et al., Psychopharmacology 147, 90-95, 1999). Catalepsy is a symptom of Parkinson's disease, and is characterized by muscular rigidity and fixity of posture.
The procedure applied to the compounds of the invention is as follows:
Catalepsy is assessed using the bar test in mice submitted to acute administration of haloperidol (1 mg/kg, intra-peritoneal or i.p.). Mice (male RjOrl:SWISS mice, weighing 30-35 g at the beginning of the experiment) were placed (6 to 9 in each group) in Plexiglas cages, and injected with haloperidol (1 mg/kg i.p.). The catalepsy response of one mouse was measured when the animal maintained an imposed posture with both forelimbs placed on a horizontal 0.9 cm diameter wire bar suspended 4 cm above a platform. […] The degree of catalepsy was scored 45 minutes after haloperidol administration and continued at 45 minutes intervals for a total of 270 minutes. […]
Compounds 81, 100, 114, 119, 143 and 144 were evaluated at 1 mg/kg, administered per os, 60 minutes after haloperidol, and compared with a vehicle control group. […]

Compound: Cc1cc(CCN2CCN(C)C(=O)C2)cc2c(=O)[nH]c(-c3cc(C(F)(F)F)ccn3)nc12.Cl [Compound 144, 8-Methyl-6-[2-(4-methyl-3-oxo-piperazin-1-yl)ethyl]-2-[4-(trifluoromethyl)-2-pyridyl]-3H-quinazolin-4-one hydrochloride]
- anti-cataleptic effect (mean time of latency spent on the bar) compared to vehicle-treated group: significant anti-cataleptic effect
